Results are given in words; binding and its absence hold for the method and conditions named. Binding calls can cover weak binding; strength is not graded here.

The target of this assay is human CD62P (P-Selectin) on the surface of activated platelets (human). Kind of assay: FACS on activated human platelets with surface CD62P.

B1: EP-FpA-PB1.3 mAb construct, incubated without Thrombin (uncleaved) (antibody, human IgG4, V domains shown)
VH: EAQLQQSGPELVEPGASVKVSCKASGYTFTNYVMHWVKQKPGQGLEWIGFINPSNDGPKYNERFKNKATLTSDKSSSTAYMELSSLTSEVSAVYFCARARPGFDWYFDVWGAGTTVTVSS
VL: DIVMTQSQKFMSTSVGDRVSVTCKASQNVATNVVWYQQRPGQSPKALIYTASYRFSGVPERFSGSGSGTDFTLTITNVQSEDLADYFCQQYNNYPYTFGGGTKVEIQR
notes: also called Sample 2
For the molecule B1, the binding entry is listed as “binds”.
